# Assay results: PubChem BioAssay AID743255 (National Center for Advancing Translational Sciences (NCATS), 2014)
# Sequences of proteins named here, by UniProt entry; tags and fusion partners are left off. A change or cut given only in a name is not applied to a line headed by its entry.
# UniProt O94782: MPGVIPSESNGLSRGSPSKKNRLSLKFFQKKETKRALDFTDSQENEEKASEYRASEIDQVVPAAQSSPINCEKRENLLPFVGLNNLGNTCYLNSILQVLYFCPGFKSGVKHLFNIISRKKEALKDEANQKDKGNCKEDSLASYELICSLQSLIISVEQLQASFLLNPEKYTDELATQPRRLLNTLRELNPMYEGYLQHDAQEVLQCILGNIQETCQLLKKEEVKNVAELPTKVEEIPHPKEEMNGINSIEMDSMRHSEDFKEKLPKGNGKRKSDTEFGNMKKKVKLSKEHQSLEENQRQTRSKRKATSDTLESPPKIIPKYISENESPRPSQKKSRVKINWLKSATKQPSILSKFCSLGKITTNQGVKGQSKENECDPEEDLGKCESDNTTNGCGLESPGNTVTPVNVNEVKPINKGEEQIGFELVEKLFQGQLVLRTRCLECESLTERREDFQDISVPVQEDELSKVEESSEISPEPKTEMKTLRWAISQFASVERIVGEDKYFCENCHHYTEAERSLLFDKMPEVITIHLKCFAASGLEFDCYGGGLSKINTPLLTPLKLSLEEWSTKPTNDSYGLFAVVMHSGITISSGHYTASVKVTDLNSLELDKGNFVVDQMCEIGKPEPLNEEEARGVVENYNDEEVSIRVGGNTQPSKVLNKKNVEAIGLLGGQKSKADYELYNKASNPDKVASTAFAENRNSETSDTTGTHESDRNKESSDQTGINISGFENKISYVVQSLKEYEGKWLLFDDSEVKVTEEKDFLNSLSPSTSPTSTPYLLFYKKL
# Out of some 390,000 compounds screened, about 910 (0.23%) were called active. The shares of active, inactive and inconclusive entries below differ from those in the screen. The call rests on the fitted dose curve; in most records, active means well fitted inhibition curve with a large enough effect; inconclusive means small, poorly fitted or top-dose-only effect; inactive means no such curve, though single readings can be large or run the other way. Potencies beside an inconclusive call are fits to weak or partial responses and may not hold up.
# Biological target: Ubiquitin carboxyl-terminal hydrolase 1 (Homo sapiens) (UniProt O94782)
# Assay: Inhibitors of USP1/UAF1: Primary Screen; further: nearly all actives have a fitted effect of over 60% in size
# Conditions: recombinant USP1/UAF1, Ub-Rhodamine cleavage fluorescence; series mostly up to 57.1 µM
# Outline: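 High-throughput fluorogenic screen: 1nM USP1/UAF1 complex, Ub-Rho substrate 150nM final, 50mM HEPES pH 7.8 with 0.5mM EDTA, 0.1 mg/ml BSA, 1mM TCEP and 0.01% Tween-20.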
# Potency means the concentration at half of the fitted maximal effect.
row,Compound,Potency
1,CCOC(=O)N1CCC(Nc2c(N3CCN(c4cc(Cl)ccc4C)CC3)c(=O)c2=O)CC1,"inconclusive: 0.708 µM [inhibitor, full curve]"
2,COc1ccc(N(CC(=O)Nc2cc(Cl)ccc2C)S(=O)(=O)c2c(C)n[nH]c2C)cc1,inactive
3,Cc1ccc(Cl)cc1NC(=O)c1oc2ccc(S(=O)(=O)N3CCCCC3)cc2c1C,"inconclusive: 4.47 µM [inhibitor, partial curve]"
4,COc1cc(NC(=S)N(C)CCC#N)c(OC)cc1Cl,"inconclusive: 7.94 µM [inhibitor, partial curve, poor fit]"
5,O=C(Nc1ccc(N2CCOCC2)cc1)C1(c2ccc(Cl)cc2)CCC1,inactive
6,O=C(CSc1nnc(-c2ccncc2)n1Cc1ccco1)c1ccc(Cl)cc1,inactive
7,C=CCSc1nc2c(cnn2-c2ccc(C)c(C)c2)c(=O)[nH]1,"inconclusive: 44.7 µM [inhibitor, partial curve, poor fit]"
8,Cc1ccc2c(c1)N(CCCC(=O)NCCCN1CCCC1=O)C(=O)CO2,"inconclusive: 7.94 µM [inhibitor, partial curve, poor fit]"
9,O=S(=O)(c1ccc(-c2nnco2)cc1)N1CCCCC1,"inconclusive: 50.1 µM [inhibitor, partial curve, poor fit]"
10,CCOc1ccc(CN2C(=O)c3ccccc3Sc3ccc(C(=O)O)cc32)cc1,inactive
11,O=C1CSC(=S)N1Nc1ccccc1,"inconclusive: 39.8 µM [inhibitor, single point]"
12,CNC(=O)C1(C(F)(F)F)C/C(=C\CCO)CCCO1 (centres undefined),"inconclusive: 0.251 µM [inhibitor, full curve, poor fit]"
13,CCCN(CCC)S(=O)(=O)c1ccc(C(=O)Nc2sc3c(c2C(=O)OC)CCN(CC)C3)cc1,"inconclusive: 35.5 µM [inhibitor, partial curve]"
14,O=C(c1cccn(Cc2ccc(C(F)(F)F)cc2)c1=O)N1CCOCC1,inactive
15,COc1ccc(O)c(-c2cc(-c3cccs3)[nH]n2)c1,inactive
16,CCN(CC(=O)Nc1cc(Cl)ccc1Cl)C(=O)c1ccc(-n2cccn2)cc1,"inconclusive: 28.2 µM [inhibitor, partial curve, poor fit]"
17,Cc1cn([C@H]2C[C@H](O)[C@@H](CCC(=O)NCc3ccc(N(C)C)cc3)O2)c(=O)[nH]c1=O,"inconclusive: 0.282 µM [inhibitor, full curve, poor fit]"
18,Cc1ccnc(-n2sc3ccccc3c2=O)n1,"inconclusive: 44.7 µM [inhibitor, partial curve]"
19,CCN(C(=O)CSc1nc(-c2ccc(C(C)C)cc2)no1)c1cccc(C)c1,"inconclusive: 7.94 µM [inhibitor, partial curve, poor fit]"

# As entered above:
# Entry of O=C1CSC(=S)N1Nc1ccccc1 under Potency: inconclusive: 39.8 µM [inhibitor, single point]
# Entry of CCOC(=O)N1CCC(Nc2c(N3CCN(c4cc(Cl)ccc4C)CC3)c(=O)c2=O)CC1 under Potency: inconclusive: 0.708 µM [inhibitor, full curve]
